About 17,000 (5.5%) of roughly 310,000 compounds were called active. The inconclusive results got no clear call from the source; some entries with a clear call stand among them for comparison. Calls come from the whole dose curve; as a rule, active = well fitted inhibition curve with a large enough effect; inconclusive = small, poorly fitted or top-dose-only effect, or effect the other way; inactive = no such curve, though single readings can be large or run the other way. Where the call is inconclusive, the potency comes from a doubtful curve fit.
Biological target: Nuclear receptor ROR-gamma (Mus musculus) (UniProt P51450)
Assay: qHTS for inhibitors of ROR gamma transcriptional activity; note: nearly all actives have a fitted effect of over 60% in size
Details: Drosophila S2 Gal4-RORgamma UAS-luciferase reporter, 20 h; activity change, negative = inhibition: at 53.6 µM (top of the series)
In short: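 Stably transfected Drosophila Schneider cells are the test system, with ROR gamma fused to Gal4 and luciferase under UAS control; luminescence is read after 20 hr of 700 uM copper sulfate induction at ambient temperature.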
% is set by controls: 0 for no effect and ±100 for the full control effect; potency is the fitted concentration of half-maximal effect.

Protein sequences, listed by entry. Tags and fused reporters are not part of them. Lines headed by an entry give the natural chain unless they say otherwise; changes in a name come on top.
UniProt P51450: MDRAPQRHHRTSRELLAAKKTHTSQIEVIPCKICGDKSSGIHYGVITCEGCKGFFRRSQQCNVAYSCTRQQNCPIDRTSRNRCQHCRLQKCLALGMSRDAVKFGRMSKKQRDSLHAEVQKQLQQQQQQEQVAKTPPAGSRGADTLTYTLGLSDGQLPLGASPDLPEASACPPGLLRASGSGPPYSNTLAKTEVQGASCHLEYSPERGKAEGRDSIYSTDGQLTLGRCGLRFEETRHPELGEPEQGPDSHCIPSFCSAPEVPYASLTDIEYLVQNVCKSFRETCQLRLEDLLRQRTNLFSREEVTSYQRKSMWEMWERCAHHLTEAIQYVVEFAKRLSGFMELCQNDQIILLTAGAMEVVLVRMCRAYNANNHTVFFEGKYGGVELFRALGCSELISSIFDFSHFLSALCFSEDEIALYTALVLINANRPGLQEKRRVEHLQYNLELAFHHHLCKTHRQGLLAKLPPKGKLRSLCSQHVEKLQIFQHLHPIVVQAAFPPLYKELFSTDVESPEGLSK

| SMILES | activity change, negative = inhibition | Potency |
| --- | --- | --- |
| CC(C)Cn1c(=O)c(-[n+]2ccccc2)c([O-])c2ccccc21 | inactive: 13.4% | – |
| O=C(NCCC(c1ccccc1)c1ccco1)c1cccs1 (stereo not given) | – | inconclusive: 7.08 µM [activator, partial curve] |
| O=C(c1ccccc1)C(C(=O)N1CCc2ccccc2C1)n1ccccc1=O (stereo not given) | – | inconclusive: 14.1 µM [activator, single point] |
| COc1cc(CN2CCCC(N3CCN(c4ccccc4C)CC3)C2)ccc1O (stereo not given) | inactive: -1.01% | – |
| Cc1cc(/C=N/Nc2ncnc(N)c2[N+](=O)[O-])c(C)n1-c1ccccc1 | – | active: 6.31 µM |
| O=C(CCC(=O)N(c1cccc(F)c1)C(C(=O)NC1CCCC1)c1ccncc1)Nc1cccnc1 (stereo not given) | – | inconclusive: 2 µM [activator, full curve] |
| CC(C)N(C)Cc1nnnn1CC(=O)NCCc1cccc(C(F)(F)F)c1 | inactive: 0.485% | – |
| COc1ccc(C(=O)NCc2cc(C)nc3ccccc23)cc1 | – | inconclusive: 15.8 µM [inhibitor, single point] |
| O=C(N/C(=C/c1ccccc1)C(=O)N1CCCCC1)c1ccccc1 | – | inconclusive: 14.1 µM [inhibitor, single point] |
| CCN(C(=O)CSc1nc2n[nH]c(C)c2c(=N)n1-c1ccc(Cl)c(C)c1)c1cccc(C)c1 | – | active: 12.6 µM |
| CCOc1ncccc1C(=O)OCC(=O)Nc1cccc(C(C)=O)c1 | – | inconclusive: 11.2 µM [activator, partial curve, poor fit] |
| Cc1ccc2c(Cl)c(C(=O)Nc3nn[nH]n3)sc2c1 | – | inconclusive: 35.5 µM [inhibitor, single point] |
| CCOc1cccc(C2CC(=O)Nc3cc(OC)c(OC)cc32)c1 (stereo not given) | – | inconclusive: 12.6 µM [activator, partial curve] |
| CC1(C)Cc2ccccc2C(NNC(=O)c2ccccn2)=N1 | – | active: 0.0501 µM |
| CCOC(=O)c1[nH]c2c(c1-c1ccccc1)C(=O)CC(c1ccc(OC)c(OC)c1)C2 (stereo not given) | – | inconclusive: 20 µM [activator, partial curve] |
| Cc1cc(/C=C(\C#N)C(=O)NCc2ccco2)c(C)[nH]1 | inactive: -1.22% | – |
| Cc1ccccc1Cn1cccc1/C=C1/C(=N)N2C=CSC2=NC1=O | – | inconclusive: 20 µM [inhibitor, single point] |
| COc1ccc(-c2nsc3c(SCC(=O)Nc4cc(C)ccc4C)ncnc23)cc1 | inactive: -2.01% | – |
| Cc1occc1-c1nnc(SCC(=O)Nc2nc(C(C)(C)C)cs2)o1 | – | inconclusive: 35.5 µM [inhibitor, single point] |
| CC(Sc1nc(NCc2ccccc2)nc(N(C)C)n1)C(=O)Nc1ccccc1 (stereo not given) | inactive: 42.4% | – |
| COc1ccc(CN2C(=O)c3ccccc3C2=O)cc1C(=O)OC(C)C(=O)NC(N)=O (stereo not given) | – | inconclusive: 6.31 µM [activator, full curve, poor fit] |
| N/C(=N\OC(=O)CCCc1ccccc1)c1ccccc1 | inactive: 41.9% | – |
| CC(C)n1c(CSCc2ccc(Cl)cc2Cl)n[nH]c1=S | – | active: 1.41 µM |
| CNC(=O)COc1ccc2oc3c(c2c1)CCCC3 | inactive: 26.2% | – |
| COc1ccccc1Nc1nc(N)nc(CN2CC(C)CC(C)C2)n1 (stereo not given) | – | active: 8.91 µM |

Looked up above:
COc1ccc(-c2nsc3c(SCC(=O)Nc4cc(C)ccc4C)ncnc23)cc1 – activity change, negative = inhibition: inactive: -2.01%
O=C(CCC(=O)N(c1cccc(F)c1)C(C(=O)NC1CCCC1)c1ccncc1)Nc1cccnc1 (stereo not given) – Potency: inconclusive: 2 µM [activator, full curve]

The listing continues:

| SMILES | activity change, negative = inhibition | Potency |
| --- | --- | --- |
| O=C(c1ccccc1)N1N=C(C(F)(F)F)CC1(O)c1ccccc1O (stereo not given) | – | active: 8.91 µM |
| O=C(NCCOc1ccccc1)c1cc(C(=O)NCCOc2ccccc2)cc([N+](=O)[O-])c1 | – | inconclusive: 12.6 µM [activator, partial curve] |
| O=C(Nc1nccs1)c1ccc(COc2ccc(F)cc2)o1 | – | inconclusive: 22.4 µM [inhibitor, single point] |
| COc1ccccc1-c1cnn2c(NCCc3ccccc3)cc(C)nc12 | inactive: 3.34% | – |
| CC1=NN(C(=O)Cn2ccc([N+](=O)[O-])n2)C(O)(C(F)(F)F)C1 (stereo not given) | – | inconclusive: 17.8 µM [inhibitor, single point] |
| COC(=O)COc1ccc(-c2nccc(-c3ccccn3)n2)cc1 | – | inconclusive: 1.58 µM [inhibitor, partial curve] |
| c1ccc(-c2csc(Nc3cccnc3)n2)nc1 | – | inconclusive: 35.5 µM [inhibitor, single point] |
| Cc1ccccc1C(=O)N1CCC(C(=O)N(C)CCOc2ccccc2)CC1 | inactive: 13.7% | – |
| Cc1ccc(S(=O)(=O)c2c(C)nn(C(C)(C)C)c2OC(=O)c2cccs2)cc1 | – | inconclusive: 12.6 µM [activator, partial curve] |
| COc1ccc2nc(NC(=O)C3CCN(C(=O)c4ccco4)CC3)sc2c1 | – | inconclusive: 3.98 µM [activator, full curve] |
| S=c1[nH]nc(CSCCOc2ccccc2)o1 | – | inconclusive: 15.8 µM [inhibitor, single point] |
| CCCc1nnc(NC(=O)c2cc3ccccc3oc2=O)s1 | inactive: -1% | – |
| COc1ccc(/C=N/n2c(-c3ccccc3)n[nH]c2=S)cc1 | – | active: 5.62 µM |
| CCCCN=C1NN=C(c2cccc([N+](=O)[O-])c2)CS1 | – | inconclusive: 15.8 µM [inhibitor, single point] |
| CC(=O)O[C@H]1C(=O)[C@@]2(C)[C@H]([C@H](OC(=O)c3ccccc3)[C@]3(O)C[C@H](OC(=O)[C@H](O)C(NC(=O)c4ccccc4)c4ccccc4)C(C)=C1C3(C)C)[C@]1(OC(C)=O)CO[C@@H]1C[C@@H]2O (stereo not given in full) | – | inconclusive: 1.12 µM [activator, partial curve] |
| Cc1cc(C)cc(NC(=O)c2cccc3c2C(=O)N(C2CCCCC2)C3)c1 | inactive: -14.4% | – |
| Cc1c(NC(=O)Nc2cccc(Cl)c2Cl)c(=O)n(-c2ccccc2)n1C | inactive: -6.65% | – |
| CCc1c(C)sc(NC(=O)Cn2nc(C)c([N+](=O)[O-])c2C)c1C(N)=O | inactive: -7.9% | – |
| Cc1ccc(C)c(NC(=S)NCc2cccn2C)c1 | – | active: 10 µM |
| CCNC(=S)NNC(=O)c1cc(C)nc2ccccc12 | – | inconclusive: 4.47 µM [inhibitor, partial curve] |
| CC(=O)Oc1cc2oc(=O)cc(C)c2cc1OC(C)=O | – | inconclusive: 0.005 µM [activator, full curve, poor fit] |
| CC(=O)N=c1c(C#N)cc2c(=O)n3ccccc3nc2n1Cc1ccccc1 | inactive: -10% | – |
| O=C(Nc1ccncc1)OCc1ccccc1 | inactive: 2.96% [at 1.91 µM] | – |
| O=C(c1sc(N2CCOCC2)nc1-c1ccccc1)N1CCCCC1 | inactive: -12.3% | – |
| O=C(Nc1cccc(OCC(=O)N2CCOCC2)c1)c1ccc(C(F)(F)F)cc1 | – | inconclusive: 2.82 µM [activator, full curve] |

| SMILES | activity change, negative = inhibition | Potency |
| --- | --- | --- |
| CC(=O)N1CCC[C@@]2(CCN(Cc3ccccc3)C2)C1 | inactive: 2.45% | – |
| Cc1ccc(-n2c(CNc3cccc(Cl)c3)n[nH]c2=S)cc1 | – | inconclusive: 2.51 µM [inhibitor, full curve, poor fit] |
| COc1ccc(Cl)cc1NC(=O)CNCC(c1ccccc1)N(C)C (stereo not given) | inactive: -7.38% | – |
| O=C(CC1C(=O)NCCN1CC1CCCCC1)NCc1cc(F)ccc1F (stereo not given) | – | inconclusive: 15.8 µM [activator, partial curve] |
| O=C(c1ccncc1)N(Cc1ccco1)Cc1cc2ccccc2[nH]c1=O | – | inconclusive: 20 µM [activator, partial curve, poor fit] |
| Nc1nc(-c2ccccc2)nc2sc3c(c12)CCCC3 | – | inconclusive: 10 µM [inhibitor, partial curve] |
| CCOC(=O)c1c(NC(=S)N2CCN(C)CC2)sc(C)c1-c1ccccc1 | inactive: -18.7% | – |
| COc1ccccc1N1CCN(C(=O)c2cc(-c3ccccc3O)on2)CC1 | – | inconclusive: 11.2 µM [activator, partial curve, poor fit] |
| CS(=O)(=O)N(CC(=O)NCc1ccco1)c1ccc(Cl)c(C(F)(F)F)c1 | – | inconclusive: 12.6 µM [activator, partial curve, poor fit] |
| Cc1ccccc1Cn1ccc(-c2ccc3c(c2)OCO3)n1 | inactive: 12.8% | – |
| Cc1ccc(NC(=O)CN(C)CC(=O)Nc2ccc(N3CCOCC3)cc2)c([N+](=O)[O-])c1 | inactive: -1.67% [at 10 µM] | – |
| COc1ccccc1-n1c(-c2ccc(Cl)cc2)c[nH]c1=S | – | active: 2.82 µM |
| O=C(NC(=O)c1ccccc1O)c1ccc(C(F)(F)F)cc1 | – | inconclusive: 20 µM [inhibitor, single point] |
| CCCCNS(=O)(=O)c1ccc(S(=O)(=O)N2CCC3(CC2)OCCO3)cc1 | – | inconclusive: 35.5 µM [activator, single point] |
| Cc1ccc2c(CC(=O)NCc3ccco3)coc2c1C | – | inconclusive: 3.16 µM [activator, partial curve] |
| S=c1[nH]nc(-c2ccccn2)n1/N=C/c1cccc(Cl)c1 | – | active: 11.2 µM |
| O=C(CCCn1c(=O)oc2ccccc21)N1CCN(c2ccc(F)cc2)CC1 | – | inconclusive: 15.8 µM [activator, single point] |
| O=C(NC(=S)NNC(=O)c1cccs1)c1ccccc1 | – | active: 5.62 µM |
| O=[N+]([O-])c1ccc(S(=O)(=O)NNC(=S)NCCc2ccccc2)cc1 | – | active: 8.91 µM |
| CCC(=O)Oc1ccc2ccccc2c1CNC(=O)c1ccccc1 | – | inconclusive: 20 µM [activator, single point] |
| O=C(CCc1nnc2ccc(NCc3ccccc3Cl)nn12)NC1CCCCC1 | inactive: -8.62% | – |
| CC(C)c1ccc(OCC(=O)NC2=NCCS2)cc1 | – | active: 14.1 µM |
| O=C(NC(=S)NCc1cccnc1)c1cc2ccccc2o1 | – | active: 12.6 µM |
| CCCOc1ccc(C(=O)Nc2nc(C)c(Cc3ccc4c(c3)OCO4)s2)cc1 | – | inconclusive: 11.2 µM [inhibitor, single point] |
| O=C(NC(=S)Nc1ccccc1N1CCOCC1)c1ccccc1F | – | active: 12.6 µM |

Whole records, quoted from the list:
COc1ccccc1N1CCN(C(=O)c2cc(-c3ccccc3O)on2)CC1 as listed: Potency: inconclusive: 11.2 µM [activator, partial curve, poor fit]
CCC(=O)Oc1ccc2ccccc2c1CNC(=O)c1ccccc1 as listed: Potency: inconclusive: 20 µM [activator, single point]
